Measured values reported in the supplement of paper PMC10849652.
The other results are listed elsewhere or left out.

By UniProt entry, the sequences of proteins in these tests, tags left out. Where a name states a change or a piece, a line headed by the entry shows the natural chain unless it says otherwise.
UniProt Q9Y5B8, whole entry, looked up: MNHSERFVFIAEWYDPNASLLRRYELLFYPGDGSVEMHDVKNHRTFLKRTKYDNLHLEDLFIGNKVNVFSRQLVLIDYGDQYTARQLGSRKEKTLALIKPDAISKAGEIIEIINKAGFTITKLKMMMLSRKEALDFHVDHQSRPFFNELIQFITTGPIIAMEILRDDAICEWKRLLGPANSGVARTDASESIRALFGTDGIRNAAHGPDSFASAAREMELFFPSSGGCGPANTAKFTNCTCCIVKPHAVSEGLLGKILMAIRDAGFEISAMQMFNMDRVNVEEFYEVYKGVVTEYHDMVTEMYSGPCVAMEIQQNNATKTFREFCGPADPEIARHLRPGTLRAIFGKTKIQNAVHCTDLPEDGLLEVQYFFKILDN
UniProt Q9NZJ9: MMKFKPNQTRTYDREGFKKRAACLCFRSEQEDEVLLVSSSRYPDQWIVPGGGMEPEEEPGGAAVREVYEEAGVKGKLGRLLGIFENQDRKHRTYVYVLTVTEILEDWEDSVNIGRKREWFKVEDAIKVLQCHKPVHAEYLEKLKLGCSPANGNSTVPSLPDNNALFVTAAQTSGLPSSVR
UniProt Q969T7: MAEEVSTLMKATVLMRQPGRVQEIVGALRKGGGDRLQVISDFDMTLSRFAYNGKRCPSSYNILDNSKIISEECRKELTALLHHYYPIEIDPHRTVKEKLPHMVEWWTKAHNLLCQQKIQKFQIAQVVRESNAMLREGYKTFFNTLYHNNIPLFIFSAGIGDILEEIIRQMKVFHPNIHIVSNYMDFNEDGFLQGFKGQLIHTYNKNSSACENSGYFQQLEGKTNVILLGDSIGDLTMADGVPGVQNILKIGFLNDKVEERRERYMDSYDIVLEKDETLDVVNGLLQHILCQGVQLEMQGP
UniProt Q92686, whole entry, looked up: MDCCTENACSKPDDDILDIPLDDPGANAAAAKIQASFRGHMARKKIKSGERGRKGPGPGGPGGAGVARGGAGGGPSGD
UniProt P46531, whole entry, looked up: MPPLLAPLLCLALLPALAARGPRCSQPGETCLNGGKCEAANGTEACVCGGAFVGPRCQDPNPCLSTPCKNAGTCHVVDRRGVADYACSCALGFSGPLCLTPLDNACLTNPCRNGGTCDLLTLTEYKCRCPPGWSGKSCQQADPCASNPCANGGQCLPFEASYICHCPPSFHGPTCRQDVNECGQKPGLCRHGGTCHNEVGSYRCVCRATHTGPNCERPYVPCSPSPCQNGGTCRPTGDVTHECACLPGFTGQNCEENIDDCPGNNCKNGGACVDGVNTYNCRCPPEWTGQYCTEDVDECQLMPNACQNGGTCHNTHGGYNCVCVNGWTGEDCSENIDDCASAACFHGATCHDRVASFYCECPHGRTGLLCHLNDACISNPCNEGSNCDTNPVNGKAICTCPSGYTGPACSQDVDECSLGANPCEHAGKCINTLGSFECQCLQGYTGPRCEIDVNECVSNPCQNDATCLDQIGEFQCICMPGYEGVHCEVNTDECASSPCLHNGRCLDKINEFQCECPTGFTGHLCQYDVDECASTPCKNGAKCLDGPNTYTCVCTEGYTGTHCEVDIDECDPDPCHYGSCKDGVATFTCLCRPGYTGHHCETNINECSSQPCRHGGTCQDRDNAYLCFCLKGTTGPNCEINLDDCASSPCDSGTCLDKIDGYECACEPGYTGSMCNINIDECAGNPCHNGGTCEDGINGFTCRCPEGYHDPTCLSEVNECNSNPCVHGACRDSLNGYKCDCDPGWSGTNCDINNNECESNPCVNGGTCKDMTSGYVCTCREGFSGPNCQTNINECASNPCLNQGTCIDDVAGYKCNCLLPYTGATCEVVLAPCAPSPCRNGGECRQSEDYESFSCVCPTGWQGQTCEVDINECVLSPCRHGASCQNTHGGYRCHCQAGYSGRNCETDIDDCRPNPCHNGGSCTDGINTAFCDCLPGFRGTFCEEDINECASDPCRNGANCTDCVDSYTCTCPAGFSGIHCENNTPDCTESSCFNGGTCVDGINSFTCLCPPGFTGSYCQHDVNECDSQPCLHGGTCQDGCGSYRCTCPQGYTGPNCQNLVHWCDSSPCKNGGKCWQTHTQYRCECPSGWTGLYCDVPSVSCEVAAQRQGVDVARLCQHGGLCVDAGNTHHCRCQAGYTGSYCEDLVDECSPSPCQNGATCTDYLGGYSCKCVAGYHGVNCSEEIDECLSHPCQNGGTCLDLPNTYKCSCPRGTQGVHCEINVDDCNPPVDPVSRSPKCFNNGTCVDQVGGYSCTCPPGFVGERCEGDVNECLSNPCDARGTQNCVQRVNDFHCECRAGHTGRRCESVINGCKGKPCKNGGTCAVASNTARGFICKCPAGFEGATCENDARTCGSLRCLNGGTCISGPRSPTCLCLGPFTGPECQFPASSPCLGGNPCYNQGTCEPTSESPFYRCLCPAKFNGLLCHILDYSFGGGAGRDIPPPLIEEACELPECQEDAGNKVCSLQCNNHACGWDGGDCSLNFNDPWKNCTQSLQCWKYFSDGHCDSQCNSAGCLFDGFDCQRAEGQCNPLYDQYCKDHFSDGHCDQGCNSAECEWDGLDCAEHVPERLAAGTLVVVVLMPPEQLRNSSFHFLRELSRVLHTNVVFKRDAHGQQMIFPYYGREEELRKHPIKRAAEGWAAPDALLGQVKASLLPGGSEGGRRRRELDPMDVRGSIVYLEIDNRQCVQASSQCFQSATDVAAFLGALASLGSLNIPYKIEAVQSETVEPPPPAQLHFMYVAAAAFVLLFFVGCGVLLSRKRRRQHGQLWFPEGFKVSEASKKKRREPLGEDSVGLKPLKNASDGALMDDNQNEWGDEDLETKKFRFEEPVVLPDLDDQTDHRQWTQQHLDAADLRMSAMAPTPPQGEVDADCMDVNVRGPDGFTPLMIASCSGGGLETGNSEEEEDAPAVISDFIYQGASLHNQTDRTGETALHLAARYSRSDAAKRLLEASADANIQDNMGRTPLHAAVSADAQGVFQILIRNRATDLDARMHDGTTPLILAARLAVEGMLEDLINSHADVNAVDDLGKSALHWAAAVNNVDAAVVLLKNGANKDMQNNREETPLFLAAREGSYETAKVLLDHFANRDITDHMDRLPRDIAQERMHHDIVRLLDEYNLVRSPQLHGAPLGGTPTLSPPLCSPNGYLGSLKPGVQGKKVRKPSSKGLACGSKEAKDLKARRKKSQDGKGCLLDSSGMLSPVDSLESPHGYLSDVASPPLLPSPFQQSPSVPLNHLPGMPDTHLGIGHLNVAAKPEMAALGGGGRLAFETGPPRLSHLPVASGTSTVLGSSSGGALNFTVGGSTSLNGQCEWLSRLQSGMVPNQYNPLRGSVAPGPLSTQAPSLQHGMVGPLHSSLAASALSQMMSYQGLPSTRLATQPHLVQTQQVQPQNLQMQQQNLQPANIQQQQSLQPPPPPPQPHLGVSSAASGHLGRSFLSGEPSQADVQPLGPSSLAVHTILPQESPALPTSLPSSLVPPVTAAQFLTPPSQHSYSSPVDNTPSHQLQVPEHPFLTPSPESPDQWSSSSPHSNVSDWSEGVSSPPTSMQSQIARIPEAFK
UniProt Q96D46: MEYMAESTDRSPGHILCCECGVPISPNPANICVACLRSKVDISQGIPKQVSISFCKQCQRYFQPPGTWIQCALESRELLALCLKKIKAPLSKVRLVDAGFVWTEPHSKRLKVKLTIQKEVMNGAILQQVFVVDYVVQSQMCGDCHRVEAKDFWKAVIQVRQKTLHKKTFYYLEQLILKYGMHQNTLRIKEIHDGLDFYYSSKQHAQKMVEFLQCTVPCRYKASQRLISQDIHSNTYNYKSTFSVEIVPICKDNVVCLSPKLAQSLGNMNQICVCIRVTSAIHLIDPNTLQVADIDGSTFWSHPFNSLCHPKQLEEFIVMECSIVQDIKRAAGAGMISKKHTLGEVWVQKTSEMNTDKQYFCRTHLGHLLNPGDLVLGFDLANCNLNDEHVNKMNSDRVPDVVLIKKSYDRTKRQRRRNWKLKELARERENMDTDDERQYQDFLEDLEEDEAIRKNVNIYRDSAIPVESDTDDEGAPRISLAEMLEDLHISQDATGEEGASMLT
UniProt O75414: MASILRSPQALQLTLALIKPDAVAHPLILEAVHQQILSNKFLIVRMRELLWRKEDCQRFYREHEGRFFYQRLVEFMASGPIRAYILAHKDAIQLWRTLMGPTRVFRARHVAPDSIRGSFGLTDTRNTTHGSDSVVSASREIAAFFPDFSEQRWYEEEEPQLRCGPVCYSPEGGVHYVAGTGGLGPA
UniProt P46459: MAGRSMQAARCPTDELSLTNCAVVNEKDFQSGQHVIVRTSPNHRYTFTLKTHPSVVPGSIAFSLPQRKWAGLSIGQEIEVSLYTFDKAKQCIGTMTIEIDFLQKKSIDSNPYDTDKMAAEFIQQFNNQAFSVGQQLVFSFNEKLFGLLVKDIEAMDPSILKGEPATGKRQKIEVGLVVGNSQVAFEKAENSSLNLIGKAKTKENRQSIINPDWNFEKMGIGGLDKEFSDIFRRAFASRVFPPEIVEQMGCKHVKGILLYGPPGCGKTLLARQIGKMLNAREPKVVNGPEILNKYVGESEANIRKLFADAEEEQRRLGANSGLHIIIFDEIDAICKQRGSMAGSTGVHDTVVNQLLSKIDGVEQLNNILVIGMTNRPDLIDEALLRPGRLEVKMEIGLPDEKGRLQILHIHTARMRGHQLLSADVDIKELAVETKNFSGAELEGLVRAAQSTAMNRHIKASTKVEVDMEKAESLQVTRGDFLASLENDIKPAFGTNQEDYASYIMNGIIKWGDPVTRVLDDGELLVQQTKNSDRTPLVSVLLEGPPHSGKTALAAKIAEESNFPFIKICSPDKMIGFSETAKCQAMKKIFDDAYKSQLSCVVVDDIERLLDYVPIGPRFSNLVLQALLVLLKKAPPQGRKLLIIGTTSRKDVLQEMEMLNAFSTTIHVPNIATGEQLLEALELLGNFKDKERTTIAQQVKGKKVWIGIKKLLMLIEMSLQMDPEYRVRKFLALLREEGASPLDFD
UniProt Q5JPE7: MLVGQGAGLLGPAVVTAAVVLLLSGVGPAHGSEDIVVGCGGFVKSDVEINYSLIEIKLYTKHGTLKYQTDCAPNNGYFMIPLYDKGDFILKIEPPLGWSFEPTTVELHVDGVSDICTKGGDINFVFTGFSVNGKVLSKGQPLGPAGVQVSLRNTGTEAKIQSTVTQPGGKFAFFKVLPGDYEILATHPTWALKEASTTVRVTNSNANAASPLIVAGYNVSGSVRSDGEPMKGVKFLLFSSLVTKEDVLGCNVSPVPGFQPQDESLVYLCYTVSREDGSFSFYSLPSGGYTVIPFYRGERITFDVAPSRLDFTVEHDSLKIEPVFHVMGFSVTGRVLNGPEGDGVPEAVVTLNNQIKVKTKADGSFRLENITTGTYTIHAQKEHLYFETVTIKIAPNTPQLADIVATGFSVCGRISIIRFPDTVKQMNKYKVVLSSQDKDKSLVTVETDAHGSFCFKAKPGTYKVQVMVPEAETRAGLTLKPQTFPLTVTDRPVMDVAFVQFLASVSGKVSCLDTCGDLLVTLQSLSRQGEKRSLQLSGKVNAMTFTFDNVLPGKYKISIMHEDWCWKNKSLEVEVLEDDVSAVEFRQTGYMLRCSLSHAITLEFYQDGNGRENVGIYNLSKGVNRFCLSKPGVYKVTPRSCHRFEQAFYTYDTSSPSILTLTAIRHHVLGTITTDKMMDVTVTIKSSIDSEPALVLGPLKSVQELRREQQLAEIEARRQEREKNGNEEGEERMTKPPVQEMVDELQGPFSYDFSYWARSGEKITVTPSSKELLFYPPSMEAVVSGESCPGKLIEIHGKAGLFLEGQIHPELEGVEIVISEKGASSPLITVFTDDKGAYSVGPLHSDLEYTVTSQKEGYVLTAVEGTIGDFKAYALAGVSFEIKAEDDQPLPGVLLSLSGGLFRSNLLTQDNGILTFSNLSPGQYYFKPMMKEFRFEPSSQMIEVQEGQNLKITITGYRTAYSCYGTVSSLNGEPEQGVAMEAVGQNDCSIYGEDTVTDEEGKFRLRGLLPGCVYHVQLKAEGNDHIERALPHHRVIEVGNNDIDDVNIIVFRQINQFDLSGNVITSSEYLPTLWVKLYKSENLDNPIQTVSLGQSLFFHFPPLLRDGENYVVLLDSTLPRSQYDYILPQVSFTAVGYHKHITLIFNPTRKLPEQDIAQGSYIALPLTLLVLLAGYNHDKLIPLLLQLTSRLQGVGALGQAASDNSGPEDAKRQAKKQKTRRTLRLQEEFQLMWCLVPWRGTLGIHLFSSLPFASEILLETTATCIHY
UniProt P78549: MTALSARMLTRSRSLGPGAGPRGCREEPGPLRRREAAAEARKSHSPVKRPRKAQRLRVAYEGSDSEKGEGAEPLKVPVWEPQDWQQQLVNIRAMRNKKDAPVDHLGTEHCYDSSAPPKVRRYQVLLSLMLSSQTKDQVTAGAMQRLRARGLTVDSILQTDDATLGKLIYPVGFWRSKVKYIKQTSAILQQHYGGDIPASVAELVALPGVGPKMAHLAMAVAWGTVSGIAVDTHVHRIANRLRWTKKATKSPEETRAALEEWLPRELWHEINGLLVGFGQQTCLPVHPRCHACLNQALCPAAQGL

Key:
Assay in all cases: log2 fold change, soluble protein after heating vs DMSO (PISA); higher = thermal stabilisation; K562 lysate, 10 uM; active = over 0.2 and 3.5 SD of the protein, either way, in both replicates (recomputed)
nilotinib = compound: Cc1cn(-c2cc(NC(=O)c3ccc(C)c(Nc4nccc(-c5cccnc5)n4)c3)cc(C(F)(F)F)c2)cn1 [nilotinib]
Summary of the method: (§1)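 K562 pellets were dounce-homogenised in PBS pH 7.4 containing 1 mM MgCl2, and the crude extract, at 1 mg/mL protein, was exposed to 10 μM compound for 30 min. Aliquots were heated for 3 min across 48°C-58°C, pooled, brought to 0.5% NP-40 at 4°C and spun at 21,000xg for 90 min, with the supernatant taken as soluble protein. TMTpro 16plex LC-MS/MS with equalised channel sums quantified that protein. Values are log-two fold changes in thermal stability relative to solvent controls, taken from duplicates.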

[1] = compound: Cc1nc(Nc2n[nH]c3c2CN(C(=O)N[C@H](CN(C)C)c2ccccc2)C3(C)C)c2sccc2n1
Summary of the method: as §1

dasatinib = compound: Cc1nc(Nc2ncc(C(=O)Nc3c(C)cccc3Cl)s2)cc(N2CCN(CCO)CC2)n1 [dasatinib]
Summary of the method: as §1

[2] = compound: Cc1ncc(-c2ccnc(Nc3ccc(S(C)(=O)=O)cc3)n2)n1C(C)C
Summary of the method: as §1

[3] = compound: Cn1cc(-c2ccc3c(c2)CCN3C(=O)Cc2cccc(C(F)(F)F)c2)c2c(N)ncnc21
Summary of the method: as §1

quisinostat = compound: Cn1cc(CNCC2CCN(c3ncc(C(=O)NO)cn3)CC2)c2ccccc21 [quisinostat]
Summary of the method: as §1

tipifarnib = compound: Cn1cncc1[C@@](N)(c1ccc(Cl)cc1)c1ccc2c(c1)c(-c1cccc(Cl)c1)cc(=O)n2C [tipifarnib]
Summary of the method: as §1

[4] = compound: NC(=O)Nc1cc(-c2cccc(F)c2)sc1C(=O)N[C@H]1CCCNC1
Summary of the method: as §1

[5] = compound: NC(=O)c1cnc(N[C@@H]2CCCC[C@@H]2N)nc1Nc1cccc(-n2nccn2)c1
Summary of the method: as §1

[6] = compound: NC1(c2ccc(-c3nc4ccn5c(=O)[nH]nc5c4cc3-c3ccccc3)cc2)CCC1
Summary of the method: as §1

Measured: log2 fold change

NUDC (UniProt Q9Y266)
inactive: nilotinib -0.012 | [1] 0.008 | dasatinib 0.011 | [2] 0.005 | [3] 0.008 | quisinostat 0.072 | tipifarnib 0.041 | [4] -0.018 | [5] -0.008 | [6] 0.002

NMT2 (UniProt O60551)
inactive: nilotinib -0.003 | [1] -0.015 | dasatinib -0.018 | [2] -0.019 | [3] -0.007 | quisinostat -0.063 | tipifarnib 0.013 | [4] 0.025 | [5] -0.017 | [6] -0.035

NUFIP1 (UniProt Q9UHK0)
inactive: nilotinib -0.086 | [1] 0.056 | dasatinib -0.025 | [2] 0.076 | [3] -0.042 | quisinostat -0.102 | tipifarnib -0.069 | [4] 0.097

NUDT21 (UniProt O43809)
inactive: nilotinib 0 | [1] -0.043 | dasatinib -0.012 | [2] -0.003 | [3] -0.026 | quisinostat 0.043 | tipifarnib 0.038 | [4] -0.015 | [5] 0.013 | [6] 0.002

NOL11 (UniProt Q9H8H0)
inactive: nilotinib 0.002 | [1] -0.01 | dasatinib -0.005 | [2] -0.004 | [3] 0.019 | quisinostat -0.07 | tipifarnib 0.023 | [4] -0.002 | [5] 0.146 | [6] 0.238

NME7 (UniProt Q9Y5B8)
inactive: nilotinib -0.085 | [1] 0.085 | dasatinib -0.014 | [2] -0.031 | [3] 0.022 | quisinostat -0.037 | tipifarnib 0.061 | [4] 0.049 | [5] -0.003 | [6] -0.036

NUDT4 isoform 2 (UniProt Q9NZJ9)
inactive: nilotinib -0.004 | [1] 0.012 | dasatinib 0.13 | [2] -0.002 | [3] 0.038 | quisinostat -0.012 | tipifarnib -0.044 | [4] 0.016 | [5] -0.042 | [6] 0.043

NT5C3B (UniProt Q969T7)
inactive: nilotinib 0.01 | [1] -0.018 | dasatinib 0.006 | [2] 0.055 | [3] 0.005 | quisinostat 0.018 | tipifarnib -0.085 | [4] -0.026 | [5] 0.015 | [6] -0.002

NUDT9 (UniProt Q9BW91)
inactive: nilotinib -0.036 | [1] -0.01 | dasatinib 0.017 | [2] 0.009 | [3] 0.03 | quisinostat -0.007 | tipifarnib -0.01 | [4] -0.016 | [5] -0.018 | [6] 0.023

NPLOC4 isoform 2 (UniProt Q8TAT6)
inactive: nilotinib -0.005 | [1] 0.007 | dasatinib 0.019 | [2] 0.007 | [3] 0.004 | quisinostat -0.037 | tipifarnib 0 | [4] -0.006 | [5] 0.018 | [6] -0.023

NR2F6 (UniProt P10588)
inactive: nilotinib 0.089 | [1] -0.113 | dasatinib 0.033 | [2] -0.013 | [3] 0.074 | quisinostat -0.049 | tipifarnib 0.02 | [4] 0.089

NRBF2 (UniProt Q96F24)
inactive: nilotinib -0.023 | [1] 0.051 | dasatinib 0.038 | [2] 0.016 | [3] 0.054 | quisinostat 0.024 | tipifarnib 0.004 | [4] 0.004 | [5] -0.009 | [6] 0.033

NRGN (UniProt Q92686)
inactive: nilotinib 0.032 | [1] -0.003 | dasatinib 0.117 | [2] 0.094 | [3] 0.037 | quisinostat -0.051 | tipifarnib 0.013 | [4] 0.092

NOTCH1 (UniProt P46531)
inactive: nilotinib -0.127 | [1] 0.077 | dasatinib 0.001 | [2] 0.019 | [3] 0.047 | quisinostat -0.083 | tipifarnib 0.006 | [4] 0.044 | [5] 0.094 | [6] -0.022

NTMT1 (UniProt Q9BV86)
inactive: nilotinib -0.033 | [1] -0.026 | dasatinib -0.053 | [2] 0.002 | [3] 0.047 | quisinostat -0.051 | tipifarnib 0.012 | [4] 0.07 | [5] -0.049 | [6] -0.002

NMD3 (UniProt Q96D46)
inactive: nilotinib 0.025 | [1] 0.028 | dasatinib -0.042 | [2] 0.015 | [3] -0.017 | quisinostat -0.003 | tipifarnib -0.004 | [4] 0.008 | [5] 0.002 | [6] -0.01

NUMA1 (UniProt Q14980)
inactive: nilotinib 0.002 | [1] -0.062 | dasatinib -0.006 | [2] -0.001 | [3] 0.056 | quisinostat -0.066 | tipifarnib -0.007 | [4] 0.01 | [5] 0.006 | [6] 0.016

NR2F2 (UniProt P24468)
inactive: nilotinib -0.063 | [1] 0.107 | dasatinib -0.027 | [2] -0.125 | [3] -0.006 | quisinostat -0.024 | tipifarnib 0.034 | [4] 0.125 | [5] 0.024 | [6] 0.029

NONO (UniProt Q15233)
inactive: nilotinib -0.007 | [1] -0.011 | dasatinib -0.047 | [2] 0.007 | [3] 0.012 | quisinostat -0.004 | tipifarnib -0.007 | [4] 0.022 | [5] 0.008 | [6] -0.013

NOL9 (UniProt Q5SY16)
inactive: nilotinib -0.042 | [1] 0.035 | dasatinib -0.029 | [2] 0.058 | [3] 0.079 | quisinostat -0.057 | tipifarnib -0.067 | [4] 0.03 | [5] 0.03 | [6] -0.012

NME6 (UniProt O75414)
inactive: nilotinib 0.034 | [1] 0.074 | dasatinib -0.002 | [2] 0.042 | [3] 0.001 | quisinostat -0.02 | tipifarnib -0.001 | [4] -0.04 | [5] -0.073 | [6] -0.032

NRIP1 (UniProt P48552)
inactive: nilotinib 0.035 | [1] -0.127 | dasatinib 0.135 | [2] 0.035 | [3] 0 | quisinostat -0.437 | tipifarnib -0.03 | [4] 0.083 | [5] 0.022 | [6] -0.048

NSD3 (UniProt Q9BZ95)
inactive: nilotinib 0.013 | [1] -0.035 | dasatinib -0.233 | [2] -0.016 | [3] 0.153 | quisinostat -0.091 | tipifarnib -0.144 | [4] 0.039

NSF (UniProt P46459)
inactive: nilotinib -0.002 | [1] 0.011 | dasatinib -0.014 | [2] -0.016 | [3] 0.01 | quisinostat 0.012 | tipifarnib -0.02 | [4] 0.014 | [5] 0.01 | [6] 0.004

NOMO2 (UniProt Q5JPE7)
inactive: nilotinib 0.02 | [1] -0.014 | dasatinib -0.018 | [2] -0.005 | [3] -0.008 | quisinostat -0.017 | tipifarnib -0.043 | [4] 0.028 | [5] -0.005 | [6] -0.034

NOB1 (UniProt Q9ULX3)
inactive: nilotinib 0.018 | [1] -0.026 | dasatinib 0.004 | [2] -0.066 | [3] 0.044 | quisinostat 0.041 | tipifarnib 0 | [4] 0.043 | [5] -0.018 | [6] 0.058

NTHL1 (UniProt P78549)
inactive: nilotinib -0.062 | [1] 0.031 | dasatinib 0.014 | [2] 0.174 | [3] 0.056 | quisinostat -0.006 | tipifarnib -0.033 | [4] 0.094 | [5] -0.039 | [6] -0.059

2 consecutive records from above, quoted:
NME7 (UniProt Q9Y5B8)
inactive: nilotinib -0.085 | [1] 0.085 | dasatinib -0.014 | [2] -0.031 | [3] 0.022 | quisinostat -0.037 | tipifarnib 0.061 | [4] 0.049 | [5] -0.003 | [6] -0.036

NUDT4 isoform 2 (UniProt Q9NZJ9)
inactive: nilotinib -0.004 | [1] 0.012 | dasatinib 0.13 | [2] -0.002 | [3] 0.038 | quisinostat -0.012 | tipifarnib -0.044 | [4] 0.016 | [5] -0.042 | [6] 0.043

Remaining list, next part:

NOC4L (UniProt Q9BVI4)
inactive: nilotinib 0.008 | [1] 0 | dasatinib -0.04 | [2] 0.007 | [3] 0.017 | quisinostat -0.043 | tipifarnib 0.015 | [4] 0.079 | [5] -0.04 | [6] -0.008

NOL3 isoform 3 (UniProt O60936)
inactive: nilotinib 0.193 | [1] 0.077 | dasatinib 0.041 | [2] -0.499 | [3] -0.029 | quisinostat 0 | tipifarnib 0.258 | [4] -0.068 | [5] -0.144 | [6] 0.076

NRF1 isoform 4 (UniProt Q16656)
inactive: nilotinib 0.054 | [1] -0.005 | dasatinib -0.016 | [2] 0.042 | [3] 0.048 | quisinostat -0.068 | tipifarnib 0.034 | [4] 0.01 | [5] -0.012 | [6] 0.017
